For 1 molecule, binding results are on record in patent US20080299114A1.

Sequences of proteins named here, by UniProt entry; tags and fusion partners are left off. A change or cut given only in a name is not applied to a line headed by its entry.
UniProt P00751: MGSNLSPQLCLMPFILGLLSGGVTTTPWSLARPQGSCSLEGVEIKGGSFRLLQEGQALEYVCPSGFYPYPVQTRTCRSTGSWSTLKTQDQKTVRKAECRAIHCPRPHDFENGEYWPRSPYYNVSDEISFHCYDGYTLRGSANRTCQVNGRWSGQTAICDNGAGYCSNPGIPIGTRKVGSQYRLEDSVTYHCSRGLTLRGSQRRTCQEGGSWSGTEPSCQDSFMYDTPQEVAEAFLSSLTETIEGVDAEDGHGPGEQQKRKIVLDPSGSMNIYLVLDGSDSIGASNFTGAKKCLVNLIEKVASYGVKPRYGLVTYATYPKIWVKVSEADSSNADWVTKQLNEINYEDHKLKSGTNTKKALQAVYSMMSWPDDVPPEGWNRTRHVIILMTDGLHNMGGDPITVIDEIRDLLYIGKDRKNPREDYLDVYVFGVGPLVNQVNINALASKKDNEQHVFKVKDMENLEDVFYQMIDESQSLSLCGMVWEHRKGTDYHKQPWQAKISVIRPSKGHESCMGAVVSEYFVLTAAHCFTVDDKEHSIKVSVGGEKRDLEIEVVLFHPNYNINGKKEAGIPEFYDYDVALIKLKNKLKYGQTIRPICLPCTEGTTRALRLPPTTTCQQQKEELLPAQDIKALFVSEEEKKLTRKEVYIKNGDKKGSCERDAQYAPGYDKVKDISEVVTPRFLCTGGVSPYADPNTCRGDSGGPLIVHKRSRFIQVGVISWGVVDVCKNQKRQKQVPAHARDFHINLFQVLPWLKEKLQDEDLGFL

No constants are given. Whether binding was seen depends on the method and setting. Some results given as binding are weak or reduced against the parent protein; the word gives no strength.

Test [1] concerns the target recombinant human factor B (human) (UniProt P00751). Briefly: ELISA. (An ELISA detects its analyte on a solid surface through an enzyme-linked reagent.)
For test [2] the target is unchanged. The test is described as follows: dilution ELISA on factor B.

B1: cloned Fab′ TA003 (Fab, V domains shown)
VH: EVQLQQSGPELVKPGASVKIPCKASGYTFTDYNMDWVKQSHGKSLEWIGDINPNNGGTIYNQKFKGKATLTVDKSSSTAYMELRSLTSEDTAVYYCARGYYSNSAWFAYWGQGTLVTVSA
VL: DIVMSQSPSSLAVSAGEKVTMSCKSSQSLLNSRTRKNYLAWYQQKPGQSPKLLIYWASTRESGVPDRFTGSGSGTDFTLTISSVQAEDLAVYYCKQSYNLPWTFGGGTKLEIKR
On to B1, for which the binding entry in test [1] and in test [2] was “binds” each time.
